Measurements from paper PMC5996148.
Several values for one entry are separate records, joined by “and”; a condition that tells them apart may be missing. Equal values may be shown once. This is one part of the list. For some assays here: The exact form of the protein is not confirmed.

Key:
Experiment in all cases: protein microarray (ProtoArray v5.0), streptavidin-Alexa Fluor 647
Conditions in all cases: 3'-biotin; 20 mM Tris (pH 7.5), 5 mM MgCl2, 100 mM KCl, 0.1% Tween-20, A/T-rich and random oligonucleotide blockers; temperature not stated; high values mean tight binding
FANCM = FANCM (UniProt Q8IYD8)
FAU = FAU (UniProt P62861)
FBXL16 = target: T1, FBXL16 (UniProt Q8N461)
T1 sequence: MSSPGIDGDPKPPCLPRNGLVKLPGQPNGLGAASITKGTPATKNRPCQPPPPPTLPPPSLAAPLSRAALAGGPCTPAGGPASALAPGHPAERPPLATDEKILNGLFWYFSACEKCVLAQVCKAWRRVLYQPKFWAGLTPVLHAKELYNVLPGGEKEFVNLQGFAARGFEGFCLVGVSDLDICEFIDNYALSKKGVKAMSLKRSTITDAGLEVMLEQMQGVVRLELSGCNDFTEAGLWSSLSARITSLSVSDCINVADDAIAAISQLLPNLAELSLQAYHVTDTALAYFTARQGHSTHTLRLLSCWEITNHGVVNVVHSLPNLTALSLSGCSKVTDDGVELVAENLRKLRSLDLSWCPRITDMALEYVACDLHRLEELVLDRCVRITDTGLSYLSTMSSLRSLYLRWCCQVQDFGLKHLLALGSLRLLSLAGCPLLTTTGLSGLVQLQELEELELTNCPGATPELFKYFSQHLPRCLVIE

FBXO36 = target: T2, FBXO36 (UniProt Q8NEA4)
T2 sequence: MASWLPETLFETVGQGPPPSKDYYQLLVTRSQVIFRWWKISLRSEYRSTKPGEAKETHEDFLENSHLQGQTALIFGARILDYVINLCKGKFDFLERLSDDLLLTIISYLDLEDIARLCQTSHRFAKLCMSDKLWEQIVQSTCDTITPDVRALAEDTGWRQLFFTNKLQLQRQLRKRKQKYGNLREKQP

FBXO4 (human) = tested on: FBXO4 (human)
FBXO6 (human) = tested on: FBXO6 (human)
FCGR3A (human) = tested on: FCGR3A (human)
FCRL2 (human) = tested on: FCRL2 (human)
FDFT1 (human) = tested on: FDFT1 (human)
FGF12 = FGF12 (UniProt P61328)
FGF13 = target: T3, FGF13 (UniProt Q92913)
T3 sequence: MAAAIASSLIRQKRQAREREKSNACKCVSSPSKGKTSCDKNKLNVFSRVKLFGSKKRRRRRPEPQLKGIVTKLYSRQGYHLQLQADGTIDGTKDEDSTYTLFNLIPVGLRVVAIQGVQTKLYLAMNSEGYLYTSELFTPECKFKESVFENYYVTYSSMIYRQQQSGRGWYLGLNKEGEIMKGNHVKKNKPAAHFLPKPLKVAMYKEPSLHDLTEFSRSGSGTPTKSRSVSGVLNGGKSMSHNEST

FGF21 (human) = tested on: FGF21 (human)
FKBPL = target: T4, FKBPL (UniProt Q9UIM3)
T4 sequence: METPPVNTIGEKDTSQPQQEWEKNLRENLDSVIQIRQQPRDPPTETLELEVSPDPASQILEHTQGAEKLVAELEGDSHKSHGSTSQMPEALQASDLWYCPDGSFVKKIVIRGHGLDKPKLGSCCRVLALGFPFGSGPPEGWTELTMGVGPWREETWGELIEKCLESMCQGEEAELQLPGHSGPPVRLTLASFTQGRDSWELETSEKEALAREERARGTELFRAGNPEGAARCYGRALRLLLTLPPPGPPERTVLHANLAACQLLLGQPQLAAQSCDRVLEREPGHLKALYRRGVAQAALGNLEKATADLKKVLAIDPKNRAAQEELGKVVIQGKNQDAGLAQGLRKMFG

FLJ10781 (human) = tested on: FLJ10781 (human)
FLJ20160 (human) = tested on: FLJ20160 (human)
FLJ20489 (human) = tested on: FLJ20489 (human)
FLJ22222 (human) = tested on: FLJ22222 (human)
FLJ25758 (human) = tested on: FLJ25758 (human)
FLJ31438 (human) = tested on: FLJ31438 (human)
FLJ40504 (human) = tested on: FLJ40504 (human)

## GGGGACAGGGGTATGGGGAGGGG [G4-3 biotinylated (CtG)]
FANCM
  binding signal: 4.36 z-score
FAU
  binding signal: 8.88 z-score
FBXL16
  binding signal: -0.312 z-score
FBXO36
  binding signal: -0.313 z-score
FBXO4 (human)
  binding signal: -0.333 z-score
FBXO6 (human)
  binding signal: -0.316 z-score
FCGR3A (human)
  binding signal: -0.319 z-score
FCRL2 (human)
  binding signal: -0.311 z-score
FDFT1 (human)
  binding signal: -0.339 z-score
FGF12
  binding signal: 8.02 z-score and 8.31 z-score
FGF13
  binding signal: 3.55 z-score
FGF21 (human)
  binding signal: -0.3 z-score
FKBPL
  binding signal: -0.334 z-score
FLJ10781 (human)
  binding signal: 3.01 z-score
FLJ20160 (human)
  binding signal: -0.315 z-score
FLJ20489 (human)
  binding signal: -0.322 z-score
FLJ22222 (human)
  binding signal: -0.303 z-score
FLJ25758 (human)
  binding signal: -0.331 z-score
FLJ31438 (human)
  binding signal: -0.307 z-score
FLJ40504 (human)
  binding signal: -0.324 z-score
